At least one compound was matched to its structure with a doubt left. *1 amine or outer side, *2 acyl side, *3 side chain or, on linkers, in order; H or OH if unused. Where a SMILES comes first, the peptide text is derived from it. Side-chain parts run from the residue outwards. [ ]: non-standard residue; d: D form. The star is where a group is joined. Undecanoyl(11-OPh(4-COOH)) = O=C(O)c1ccc(OCCCCCCCCCCC(=O)*)cc1; γGlu = O=C(O)[C@H](CCC(=O)[*:2])N[*:1]; AEEA = NCCOCCOCC(=O)O; Aib = CC(C)(N)C(=O)O
Assay: Pharmacodynamic (PD) study in pigs, effect on food intake
Assay type: in vivo
Conditions: single s.c. dose 3 nmol/kg, NS = not significantly different from vehicle; for PD in pig, food intake (% of vehicle) for hours 0-24: 0-24 h; for PD in pig, food intake (% of vehicle) for hours 24-48: 24-48 h

Row | SMILES | PD in pig, food intake (% of vehicle) for hours 0-24 | PD in pig, food intake (% of vehicle) for hours 24-48 | PD in pig, food intake (% of vehicle) for hours 48-72 (48-72 h) | PD in pig, food intake (% of vehicle) for hours 72-96 (72-96 h)
1 | CC[C@H](C)[C@H](NC(=O)[C@H](Cc1ccccc1)NC(=O)[C@H](CCC(=O)O)NC(=O)[C@H](CCCNC(=N)N)NC(=O)[C@H](C)NC(=O)[C@H](C)NC(=O)[C@H](CCC(N)=O)NC(=O)[C@H](CCC(=O)O)NC(=O)[C@H](CCC(=O)O)NC(=O)[C@H](CC(C)C)NC(=O)[C@H](Cc1ccc(O)cc1)NC(=O)[C@H](CO)NC(=O)[C@H](CO)NC(=O)[C@@H](NC(=O)[C@H](CC(=O)O)NC(=O)[C@H](CO)NC(=O)[C@@H](NC(=O)[C@H](Cc1ccccc1)NC(=O)[C@@H](NC(=O)CNC(=O)[C@H](CCC(=O)O)NC(=O)C(C)(C)NC(=O)[C@@H](N)Cc1c[nH]cn1)[C@@H](C)O)[C@@H](C)O)C(C)C)C(=O)N[C@@H](C)C(=O)N[C@@H](Cc1c[nH]c2ccccc12)C(=O)N[C@@H](CC(C)C)C(=O)N[C@H](C(=O)N[C@@H](CCCNC(=N)N)C(=O)NCC(=O)N[C@@H](CCCCNC(=O)COCCOCCNC(=O)COCCOCCNC(=O)CC[C@H](NC(=O)CCCCCCCCCCOc1ccc(C(=O)O)cc1)C(=O)O)C(=O)N[C@@H](CCCCNC(=O)COCCOCCNC(=O)COCCOCCNC(=O)CC[C@H](NC(=O)CCCCCCCCCCOc1ccc(C(=O)O)cc1)C(=O)O)C(=O)O)C(C)C [Example 1, N{Epsilon-36}-[2-[2-[2-[[2-[2-[2-[[(4S)-4-carboxy-4-[11-(4-carboxyphenoxy)undecanoylamino]butanoyl]amino]ethoxy]ethoxy]acetyl]amino]ethoxy]ethoxy]acetyl], N{Epsilon-37}-[2-[2-[2-[[2-[2-[2-[[(4S)-4-carboxy-4-[11-(4-carboxyphenoxy)undecanoylamino]butanoyl]amino]ethoxy]ethoxy]acetyl]amino]ethoxy]ethoxy]acetyl]-[Aib8,Glu22,Arg26,Arg34,Lys36,Lys37]-GLP-1-(7-37)-peptide] | 26 % of vehicle | 53 % of vehicle | – | –
2 | CC[C@H](C)[C@H](NC(=O)[C@H](Cc1ccccc1)NC(=O)[C@H](CCC(=O)O)NC(=O)[C@H](CCCNC(=N)N)NC(=O)[C@H](C)NC(=O)[C@H](C)NC(=O)[C@H](CCC(N)=O)NC(=O)[C@H](CCC(=O)O)NC(=O)[C@H](CCC(=O)O)NC(=O)[C@H](CC(C)C)NC(=O)[C@H](Cc1ccc(O)cc1)NC(=O)[C@H](CO)NC(=O)[C@H](CO)NC(=O)[C@@H](NC(=O)[C@H](CC(=O)O)NC(=O)[C@H](CO)NC(=O)[C@@H](NC(=O)[C@H](Cc1ccccc1)NC(=O)[C@@H](NC(=O)CNC(=O)[C@H](CCC(=O)O)NC(=O)C(C)(C)NC(=O)[C@@H](N)Cc1c[nH]cn1)[C@@H](C)O)[C@@H](C)O)C(C)C)C(=O)N[C@@H](C)C(=O)N[C@@H](Cc1c[nH]c2ccccc12)C(=O)N[C@@H](CC(C)C)C(=O)N[C@H](C(=O)N[C@@H](CCC(N)=O)C(=O)NCC(=O)N[C@@H](CCCCNC(=O)COCCOCCNC(=O)COCCOCCNC(=O)CC[C@H](NC(=O)CCCCCCCCCCOc1ccc(C(=O)O)cc1)C(=O)O)C(=O)N[C@@H](CCCCNC(=O)COCCOCCNC(=O)COCCOCCNC(=O)CC[C@H](NC(=O)CCCCCCCCCCOc1ccc(C(=O)O)cc1)C(=O)O)C(=O)O)C(C)C [Example 7] (H-H[Aib]EGTFTSDVSSYLEEQAAREFIAWLVQGK([AEEA-AEEA-γGlu-Undecanoyl(11-OPh(4-COOH))])K([AEEA-AEEA-γGlu-Undecanoyl(11-OPh(4-COOH))])-OH; N-terminus and C-terminus assumed) | 84^NS % of vehicle | 85^NS % of vehicle | – | –
3 | CC[C@H](C)[C@H](NC(=O)[C@H](Cc1ccccc1)NC(=O)[C@H](CCC(=O)O)NC(=O)[C@H](CCCNC(=N)N)NC(=O)[C@H](C)NC(=O)[C@H](C)NC(=O)[C@H](CCC(N)=O)NC(=O)[C@H](CCC(=O)O)NC(=O)[C@H](CCC(=O)O)NC(=O)[C@H](CC(C)C)NC(=O)[C@H](Cc1ccc(O)cc1)NC(=O)[C@H](CO)NC(=O)[C@H](CO)NC(=O)[C@@H](NC(=O)[C@H](CC(=O)O)NC(=O)[C@H](CO)NC(=O)[C@@H](NC(=O)[C@H](Cc1ccccc1)NC(=O)[C@@H](NC(=O)CNC(=O)[C@H](CCC(=O)O)NC(=O)C(C)(C)NC(=O)[C@@H](N)Cc1c[nH]cn1)[C@@H](C)O)[C@@H](C)O)C(C)C)C(=O)N[C@@H](C)C(=O)N[C@@H](Cc1c[nH]c2ccccc12)C(=O)N[C@@H](CC(C)C)C(=O)N[C@H](C(=O)N[C@@H](CCCNC(=N)N)C(=O)NCC(=O)N[C@@H](CCCCNC(=O)COCCOCCNC(=O)COCCOCCNC(=O)CC[C@H](NC(=O)CCCCCCCCCOc1cccc(C(=O)O)c1)C(=O)O)C(=O)N[C@@H](CCCCNC(=O)COCCOCCNC(=O)COCCOCCNC(=O)CC[C@H](NC(=O)CCCCCCCCCOc1cccc(C(=O)O)c1)C(=O)O)C(=O)O)C(C)C [Example 15, N{Epsilon-36}-[2-[2-[2-[[2-[2-[2-[[(4S)-4-carboxy-4-[10-(3-carboxyphenoxy)decanoylamino]butanoyl]amino]ethoxy]ethoxy]acetyl]amino]ethoxy]ethoxy]acetyl], N{Epsilon-37}-[2-[2-[2-[[2-[2-[2-[[(4S)-4-carboxy-4-[10-(3-carboxyphenoxy)decanoylamino]butanoyl]amino]ethoxy]ethoxy]acetyl]amino]ethoxy]ethoxy]acetyl]-[Aib8,Glu22,Arg26,Arg34,Lys36,Lys37]-GLP-1-(7-37)-peptide] | 57 % of vehicle | 62 % of vehicle | 75^NS % of vehicle | 90^NS % of vehicle

Reference: US10689429B2, “Double-acylated GLP-1 compounds” (Novo Nordisk A/S, priority 2014, dated 2020)
